The experiment deals with T1, TAP-tagged Rpc82 (S. cerevisiae) (UniProt P32349).
T1 sequence: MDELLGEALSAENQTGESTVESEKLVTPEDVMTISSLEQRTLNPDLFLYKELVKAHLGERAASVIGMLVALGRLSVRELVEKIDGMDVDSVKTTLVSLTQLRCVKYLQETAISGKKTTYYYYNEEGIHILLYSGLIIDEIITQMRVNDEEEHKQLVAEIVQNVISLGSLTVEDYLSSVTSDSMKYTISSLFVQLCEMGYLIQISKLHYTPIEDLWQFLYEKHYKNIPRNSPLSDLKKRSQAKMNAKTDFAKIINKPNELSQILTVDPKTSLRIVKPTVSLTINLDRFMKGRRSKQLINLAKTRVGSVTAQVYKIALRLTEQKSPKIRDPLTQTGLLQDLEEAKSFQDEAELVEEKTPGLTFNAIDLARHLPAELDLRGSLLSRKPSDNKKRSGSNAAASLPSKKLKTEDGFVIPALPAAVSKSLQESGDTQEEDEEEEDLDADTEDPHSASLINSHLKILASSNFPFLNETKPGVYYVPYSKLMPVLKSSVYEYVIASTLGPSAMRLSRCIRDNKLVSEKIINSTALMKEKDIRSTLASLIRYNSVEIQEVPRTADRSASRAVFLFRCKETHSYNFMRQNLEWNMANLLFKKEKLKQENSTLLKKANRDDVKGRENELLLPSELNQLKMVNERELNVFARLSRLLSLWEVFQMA
Description: tandem-affinity purification; TAP-tagged Rpc82 purified from hmt1Δ cells; purified proteins resolved on 4–12% SDS–PAGE and silver stained.

No constants are given. Whether binding was seen depends on the method and setting. Some binding calls cover weakened binding; strength is not graded here. Sequences can lack the tags named with a protein.

B1: Rpc31, endogenous in hmt1Δ yeast cells (hypomethylated) (protein, UniProt P17890 1-251)
chain: MSSYRGGSRGGGSNYMSNLPFGLGYGDVGKNHITEFPSIPLPINGPITNKERSLAVKYINFGKTVKDGPFYTGSMSLIIDQQENSKSGKRKPNIILDEDDTNDGIERYSDKYLKKRKIGISIDDHPYNLNLFPNELYNVMGINKKKLLAISKFNNADDVFTGTGLQDENIGLSMLAKLKELAEDVDDASTGDGAAKGSKTGEGEDDDLADDDFEEDEDEEDDDDYNAEKYFNNGDDDDYGDEEDPNEEAAF
As to B1, the binding entry is given as “binds”.

B2: Rpc34 (protein, UniProt P32910 1-317)
chain: MSGMIENGLQLSDNAKTLHSQMMSKGIGALFTQQELQKQMGIGSLTDLMSIVQELLDKNLIKLVKQNDELKFQGVLESEAQKKATMSAEEALVYSYIEASGREGIWSKTIKARTNLHQHVVLKCLKSLESQRYVKSVKSVKFPTRKIYMLYSLQPSVDITGGPWFTDGELDIEFINSLLTIVWRFISENTFPNGFKNFENGPKKNVFYAPNVKNYSTTQEILEFITAAQVANVELTPSNIRSLCEVLVYDDKLEKVTHDCYRVTLESILQMNQGEGEPEAGNKALEDEEEFSIFNYFKMFPASKHDKEVVYFDEWTI
For the molecule B2, the binding entry is reported as “binds”.
